From US7060677B1, “Antimicrobial activity of the first cationic cluster of human lactoferrin” (priority 1999, dated 2006)
Part of at least one peptide drawing is inferred or uncertain, most often the ends. Some entries repeat one wording, which the source may state once for all of them. Peptide text beside a SMILES is read from it.

The compounds below were run on bacteria (assay: Assay for membrane permeability (propidium iodide, FACS), bacteria in general). Conditions: dose- and time-dependent, FIGS. 3A–3C.
Type: cell-based
Description: Changes in the membrane permeability of bacteria upon exposure to hLF, hLF^−3N and related peptides were monitored after incubation with propidium iodide (PI; Sigma), using FACS analysis (12, 20). Stock solutions of PI (1 mg/ml of deionized water) were prepared. Approximately 2×10^6 bacteria/ml of PBS-Tw were incubated for various intervals at 37° C., washed, incubated for 5 min with 1 μg of PI/ml (final concentration) and then analyzed with a FACScan (Becton & Dickinson, CA) equipped with a argon-laser at 488 nm. The photomultiplier voltages were routinely set at 500 V for PI fluorescence intensity in the second channel. Data acquisition and analysis were controlled using the Lysis II software.

**Q.** How did the “Effect of peptide fragments on the membrane permeability of bacteria” value (“Effect of peptide fragments” below) turn out when `CC(C)[C@H](NC(=O)[C@H](CO)NC(=O)[C@H](CCCNC(=N)N)NC(=O)[C@H](CCCNC(=N)N)NC(=O)[C@H](CCCNC(=N)N)NC(=O)[C@@H](N)CCCNC(=N)N)C(=O)N[C@@H](CCC(N)=O)C(=O)N[C@@H](Cc1c[nH]c2ccccc12)C(=O)N[C@@H](CS)C(=O)N[C@@H](C)C(=O)O` [hLF(2–11)] (H-RRRRSVQWCA-OH; N-terminus and C-terminus assumed) was run?
**A.** The value was “influenced the membrane permeability”.

**Q.** How did the “Effect of peptide fragments” value turn out when `CC(C)[C@H](NC(=O)[C@H](CO)NC(=O)[C@H](CCCNC(=N)N)NC(=O)[C@H](CCCNC(=N)N)NC(=O)[C@@H](N)CCCNC(=N)N)C(=O)N[C@@H](CCC(N)=O)C(=O)N[C@@H](Cc1c[nH]c2ccccc12)C(=O)N[C@@H](CS)C(=O)N[C@@H](C)C(=O)O` [hLF(3–11)] (H-RRRSVQWCA-OH; N-terminus and C-terminus assumed) was run?
**A.** Its value is “influenced the membrane permeability”.

**Q.** With `CC(C)[C@H](NC(=O)[C@H](CO)NC(=O)[C@H](CCCNC(=N)N)NC(=O)[C@@H](N)CCCNC(=N)N)C(=O)N[C@@H](CCC(N)=O)C(=O)N[C@@H](Cc1c[nH]c2ccccc12)C(=O)N[C@@H](CS)C(=O)N[C@@H](C)C(=O)O` [hLF(4–11)] (H-RRSVQWCA-OH; N-terminus and C-terminus assumed) as the compound, how does the “Effect of peptide fragments” value read?
**A.** Its value is “influenced the membrane permeability”.
